Reference: PubChem BioAssay AID1347076 (National Center for Advancing Translational Sciences (NCATS), 2019)
Where “and” joins values, the source holds several entries; their conditions need not be identical. Identical values can stand only once. Out of some 400,000 compounds screened, about 13,000 (3.2%) were called active. The shares of active, inactive and inconclusive entries below differ from those in the screen. Calls follow the shape of the dose curve; as a rule, active = well fitted cell-killing curve with a large enough effect; inconclusive = small, poorly fitted or top-dose-only effect, or effect the other way; inactive = flat fitted curve, though single readings scatter. A potency beside an inconclusive call is a rough fit, not a confirmed value.

assay: qHTS assay for MDR1-selective chemotherapeutics: Primary screen using the drug-selected MDR subline cells KB-V1; details: KB-V1 MDR cells viability, CellTiter-Glo, 72 h; series mostly up to 46.1 µM; also: nearly all actives have a fitted effect of over 60% in size
How it was run: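 Luminescent ATP read-out (CellTiter-Glo, 10 min) measures survival of drug-selected KB-V1 MDR cells after 72 h, 37 degrees C compound exposure. Medium: phenol-red-free DMEM, 10% FBS. Values from fitted concentration-response curves.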
Potency is read from the fitted curve at half-maximal effect.

SMILES	Potency
CCCCn1c(=O)c(C(=O)NCc2ccncc2)c(O)c2ccccc21	inconclusive: 20.6 µM [cytotoxic, partial curve]
CC(=O)OC1CC(OC2C(O)CC(OC3C(O)CC(OC4CCC5(C)C(CCC6C5CC(O)C5(C)C(C7=CC(=O)OC7)CCC65O)C4)OC3C)OC2C)OC(C)C1OC1OC(CO)C(O)C(O)C1O (stereo unspecified)	inconclusive: 2.31 µM [cytotoxic, partial curve, poor fit] and active: 920 nM
O=Cc1cn(Cc2ccc(Br)cc2)c2ccccc12	inconclusive: 3.66 µM [cytotoxic, partial curve]
O=C(Cc1ccccc1)N1CCN(Cc2ccccc2Cl)CC1	inactive
COc1ccc(CN2CCCC(C(=O)c3sccc3C)C2)cc1O (stereo unspecified)	inconclusive: 29.1 µM [cytotoxic, single point]
O=C(c1cc(C(=O)NCc2ccccc2)c(=O)n(Cc2ccccc2)c1)c1cc(Br)ccc1O	active: 2.31 µM
O=c1c2ccccc2nc(-c2ccccc2)n1-c1cccnc1	inconclusive: 14.6 µM [cytotoxic, partial curve]
COC1=C(C)C(=O)C2=C(C1=O)C(CO)N1C(C#N)C3CC4C(C1C2N1CCOC41)N3C (stereo unspecified)	active: 0.58 µM
COc1ccc(-c2ccc(OC)c(OC)c2OC)cc1	inconclusive: 10.3 µM [cytotoxic, partial curve]
O=C(c1ccc(CS(=O)(=O)c2ccccc2)o1)N1CCC2(CC1)OCCO2	active: 13 µM
CCOc1cc(CN2CCN(C(=O)Cc3ccccc3)CC2)ccc1OC	inconclusive: 4.61 µM [cytotoxic, partial curve]
CCOc1ccc(N2C(=O)NC(=O)/C(=C/c3cnc(SC)nc3)C2=O)cc1	inactive
COc1ccc(C(CC(=O)N2CCC3(CC2)OCCO3)NS(=O)(=O)c2ccc(C)cc2)cc1 (stereo unspecified)	inconclusive: 20.6 µM [cytotoxic, partial curve, poor fit]
COc1cc2c(c(OC)c1OC)-c1ccc(O)c(=O)cc1[C@@H](NC(C)=O)CC2	inconclusive: 20.6 µM [rising, partial curve, poor fit]
O=C1NC(=O)N(Cc2ccccc2)C(=O)C1Cc1ccccc1 (stereo unspecified)	inactive
Cc1ccccc1NC(=O)CCl	inactive
O=c1[nH]c2ccccc2n1C1CCN(C(c2ccccc2OC(F)(F)F)c2nnnn2Cc2ccccc2)CC1 (stereo unspecified)	inconclusive: 29.1 µM [cytotoxic, single point]
O=C1CC(=O)N(c2ccc(Cl)cc2)C(=O)N1	inconclusive: 3.26 µM [cytotoxic, partial curve, poor fit]
CCCCNC(=O)c1c(N)n(Cc2ccc3c(c2)OCO3)c2nc3ccccc3nc12	inactive
Cc1cc(C(=O)CN2CCCC2)c(C)n1-c1ccc(F)cc1	inactive
CNCC(O)c1cc(F)c(OCc2ccccc2)c(OCc2ccccc2)c1F (stereo unspecified)	inconclusive: 29.1 µM [cytotoxic, single point]
CCC1(O)CCC2C3CCC4=CC(=O)CCC4C3CCC21CC (stereo unspecified)	inconclusive: 29.1 µM [cytotoxic, single point]
CCOC(=O)C(C)Oc1cc(C)cc2oc(=O)c3c(c12)CCCC3 (stereo unspecified)	active: 10.3 µM

SMILES	Potency
COC(=O)C1=C(c2c(C)noc2C)C[C@@H]2CC[C@H]1N2C(=O)NC1CCCCC1	inactive
CN(C)C(=O)Oc1ccc(-c2cn3cc(Cl)ccc3n2)cc1	active: 4.11 µM
O=C(Cc1ccccc1)Oc1cccc(N2C(=O)CCC2=O)c1	inconclusive: 20.6 µM [rising, single point]
CCC(=NCc1ccc2c(c1)OCO2)c1c(O)n(C)c(=O)n(C)c1=O	inactive
COc1ccccc1N1CCN(Cc2cccc(Br)c2)CC1	inactive
CC1CCC/C=C/C2CC(O)CC2C(O)/C=C/C(=O)O1 (stereo unspecified)	inconclusive: 0.0058 µM [cytotoxic, full curve, poor fit]
Cc1nnc2ccc(-c3cccc(C(F)(F)F)c3)nn12	active: 11.6 µM
CSc1ncc(CN2CCCC(C(=O)c3sccc3C)C2)cn1 (stereo unspecified)	inconclusive: 8.2 µM [cytotoxic, partial curve]
Cc1ccc(N2C(=O)NC(=O)/C(=C/C=C/c3ccco3)C2=O)cc1	active: 18.4 µM
CCCCn1nnnc1C(c1cccc2ccccc12)N1CCC2(CC1)C(=O)NCN2c1ccccc1 (stereo unspecified)	active: 20.6 µM
Cc1ccc(NC(=O)c2cn(CCC#N)nc2-c2ccc3c(c2)OCCO3)c([N+](=O)[O-])c1	inconclusive: 9.2 µM [cytotoxic, partial curve]
Cc1cccc(C)c1-n1nnnc1C(c1cc2ccccc2o1)N1CCC(n2c(=O)[nH]c3ccccc32)CC1 (stereo unspecified)	inconclusive: 8.2 µM [cytotoxic, partial curve, poor fit]
CCCCn1c(=O)c(C(=O)Nc2ncccc2C)c(O)c2ccccc21	inconclusive: 5.17 µM [cytotoxic, full curve, poor fit]
COc1cc2c3cc1Oc1c(OC)c(OC)cc4c1[C@H](Cc1ccc(cc1)Oc1cc(ccc1O)C[C@H]3N(C)CC2)N(C)CC4	inconclusive: 29.1 µM [cytotoxic, single point]
N#CC(C#N)=Cc1ccc(C=C(C#N)C#N)cc1	inconclusive: 16.4 µM [cytotoxic, single point]
Cc1cc(C)n2nc(SCC(=O)N3CCC4(CC3)OCCO4)nc2n1	inactive
Cc1cccc(CN2CCCC(C(=O)c3ccc4c(c3)OCO4)C2)n1 (stereo unspecified)	inactive
Cc1ccc(C(C)(C)C)c(OCC(=O)Nc2ccc(Cl)cc2C(=O)c2ccccc2)c1	inactive
Brc1ccc2c(c1)CN(CC1CCCCC1)Cc1cnnn1-2	active: 18.4 µM
COc1cc(C2SCC(=O)Nc3c2c(C)nn3-c2ccccc2)cc(OC)c1OC (stereo unspecified)	inactive
c1cnc2c(c1)ncn2C1CCNCC1	inconclusive: 18.4 µM [rising, single point]
CCOC(=O)[C@]12Cc3cc(C)ccc3[C@H]1N(Cc1ccccc1)C(=O)c1cc(OC)ccc12	active: 9.2 µM
CCC(=Nc1ccc(OC)cc1OC)c1c(O)n(C)c(=O)n(C)c1=O	inconclusive: 11.2 µM [cytotoxic, partial curve]
